# In the supplement of paper PMC3545927:
# Sequences of proteins named here, by UniProt entry; tags and fusion partners are left off.
# furin, P09958, UniProt P09958, whole entry: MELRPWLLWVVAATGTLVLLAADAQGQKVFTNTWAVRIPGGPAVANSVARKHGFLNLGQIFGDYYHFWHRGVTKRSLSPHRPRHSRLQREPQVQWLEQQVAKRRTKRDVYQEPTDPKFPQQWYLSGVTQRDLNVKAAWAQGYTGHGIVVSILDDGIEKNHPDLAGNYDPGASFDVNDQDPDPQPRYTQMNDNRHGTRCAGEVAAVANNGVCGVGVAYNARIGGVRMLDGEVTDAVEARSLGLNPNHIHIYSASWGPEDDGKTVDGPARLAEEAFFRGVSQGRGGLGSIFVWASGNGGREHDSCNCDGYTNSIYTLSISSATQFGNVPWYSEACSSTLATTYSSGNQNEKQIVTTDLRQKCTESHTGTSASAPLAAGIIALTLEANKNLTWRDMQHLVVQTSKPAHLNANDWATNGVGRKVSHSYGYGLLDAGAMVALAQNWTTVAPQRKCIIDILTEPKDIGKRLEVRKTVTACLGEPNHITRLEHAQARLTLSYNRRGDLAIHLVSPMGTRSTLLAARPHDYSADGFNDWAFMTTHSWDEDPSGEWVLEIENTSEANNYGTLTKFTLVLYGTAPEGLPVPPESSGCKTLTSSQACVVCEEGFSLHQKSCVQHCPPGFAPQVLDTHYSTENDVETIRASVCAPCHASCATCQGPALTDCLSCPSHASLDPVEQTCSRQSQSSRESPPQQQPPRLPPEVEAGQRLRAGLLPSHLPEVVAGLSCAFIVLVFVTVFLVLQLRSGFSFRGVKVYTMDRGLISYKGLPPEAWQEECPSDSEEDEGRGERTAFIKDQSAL
# This is a selection; strong and weak results do not stand in their true shares.
# Molecular target: furin, P09958
# Test: furin cleavage Z-score vs untreated control; higher = more cleavage, active = 3.5 or more, inactive = 1 or less, 8 variable residues between constant flanks
# Procedure, shortened: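 Magnetic beads held 8-mer peptides by the N-terminus, each fused to a cDNA oligonucleotide, and purified furin was added for 7.5, 15 or 30 min. Released DNA was sequenced after PCR adapter tagging. The cleavage Z-score is the log count relative to furin-free reactions, lowess-adjusted and divided by median absolute deviation.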
# 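Also: purified furin at 1:10 enzyme:substrate in 50 mM HEPES pH 7.5.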
Sequence,furin cleavage Z-score (7.5 min),furin cleavage Z-score (15 min),furin cleavage Z-score (30 min)
CALWMMLLISAGNASASA [HC528],inactive: -0.863,inactive: -0.739,inactive: -0.913
CARQQRASRGAGNASASA [FS-2759],1.49,1.98,2.01
CARRRSSKRAAGNASASA [FS-1270],2.32,3.16,3.12
CAAFSRAYRSAGNASASA [FS-212],2.67,1.71,3.1
CAEGERGFFYAGNASASA [EK6],inactive: -2.12,inactive: -0.423,inactive: -2.28
CALLEVVTSTAGNASASA [HC2265],1.42,1.27,1.4
CAVGNWAKVLAGNASASA [HC343],1.09,1.18,2.08
CARNSTGLYHAGNASASA [HC258],inactive: 0.587,inactive: -0.804,inactive: -0.846
CARLRRDVSRAGNASASA [FS-2573],1.84,2.31,3.13
CAAGGRGPREAGNASASA [FS-4],2.6,3.28,2.72
CARIKKWLEHAGNASASA [FS-1721],inactive: -1.04,inactive: 0.181,1.15
CAGDIRVRRLAGNASASA [FS-423],active: 3.94,active: 5.14,active: 6.57
CARLEAACNWAGNASASA [HC480],1.97,2.25,1.45
CALPSRVARLAGNASASA [FS-1232],1.51,1.77,1.82
CARFRRSRRTAGNASASA [FS-2666],active: 7.49,active: 8.92,active: 6.66
CARTRRISQTAGNASASA [FS-2468],inactive: -0.0765,inactive: 0.134,inactive: 0.486
CAMTTDNLKCAGNASASA [HC1213],inactive: -0.575,inactive: -0.0624,inactive: 0.0584
CAYLIRARRSAGNASASA [FS-1439],2.86,2.54,1.78
CAAQKRSVGSAGNASASA [FS-2626],inactive: 0.58,inactive: 0.683,inactive: -0.853

# Whole records as entered above:
# CARTRRISQTAGNASASA [FS-2468] is listed with furin cleavage Z-score (7.5 min): inactive: -0.0765; furin cleavage Z-score (15 min): inactive: 0.134; furin cleavage Z-score (30 min): inactive: 0.486
# CALLEVVTSTAGNASASA [HC2265] is listed with furin cleavage Z-score (7.5 min): 1.42; furin cleavage Z-score (15 min): 1.27; furin cleavage Z-score (30 min): 1.4

# The list continues:

Sequence,furin cleavage Z-score (7.5 min),furin cleavage Z-score (15 min),furin cleavage Z-score (30 min)
CAVCEKMALYAGNASASA [HC1455],1.19,1.97,1.59
CAMEECSQHWAGNASASA [HC1768],1.19,2.17,1.37
CATQSRIRRMAGNASASA [FS-511],active: 5.23,active: 7.4,active: 6.25
CAKSRRFAQAAGNASASA [HC1299],1.36,1.43,1.63
CAQPRGRRQPAGNASASA [HC189],3.39,3.18,3.19
CALAQRQRRIAGNASASA [FS-347],inactive: 0.264,inactive: -0.423,inactive: 0.578
CAMEECMQHLAGNASASA [HC28],1.16,1.4,1.54
CAQLQRQGRGAGNASASA [FS-283],2.21,2.93,2.47
CARQARRAEPAGNASASA [FS-2505],2.51,3.08,1.66
CAWGRRARRGAGNASASA [FS-316],2.44,1.83,1.6
CARRHRSYSPAGNASASA [FS-2775],1.87,1.87,2.81
CARARRTLGHAGNASASA [FS-1684],active: 6.43,active: 8.11,active: 7.53
CAMEECPQHLAGNASASA [HC40],1.74,1.43,1.19
CAVVPCSMSYAGNASASA [HC2039],1.16,1.64,1.3
CALWHYPCTIAGNASASA [HC468],1.54,1.52,1.36
CAVPQRHRRTAGNASASA [FS-1432],active: 10.8,active: 9.86,active: 9.48
CAMEECSQHFAGNASASA [HC1767],2.16,1.35,1.89
CADHMEECSQAGNASASA [HC1815],inactive: -0.251,inactive: -0.239,inactive: -0.816
